Laboratory results as given in patent US7888089B2, “eNOS mutations useful for gene therapy and therapeutic screening” (Yale University, priority 1999, dated 2011).

Tested on: COS cells
Test: Membrane targeting of NOS constructs in COS cells
Format: cell-based
Conditions: preliminary experiments

Substance | total protein in the membrane fraction of cells
myr-nNOS: nNOS with new amino terminus containing the eNOS N-myristoylation consensus site (MGNLKSVG) | approximately 60%
nNOS: rat neuronal NOS [reference compound] | 5-10%
